Results are given in words; binding and its absence hold for the method and conditions named. In cells and extracts the contact can be indirect. Some binding calls cover weakened binding; strength is not graded here.

Amino acid sequences for entries named in this document (tags omitted). A change or cut given only in a name is not applied to a line headed by its entry.
UniProt P02745: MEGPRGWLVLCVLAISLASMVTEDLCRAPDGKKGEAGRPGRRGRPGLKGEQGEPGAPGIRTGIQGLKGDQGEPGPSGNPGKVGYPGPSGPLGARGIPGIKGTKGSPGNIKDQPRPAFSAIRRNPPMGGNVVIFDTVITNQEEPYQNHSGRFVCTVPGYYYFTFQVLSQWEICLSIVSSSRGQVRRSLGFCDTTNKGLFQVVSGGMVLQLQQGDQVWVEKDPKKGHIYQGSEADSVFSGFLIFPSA
UniProt P02746: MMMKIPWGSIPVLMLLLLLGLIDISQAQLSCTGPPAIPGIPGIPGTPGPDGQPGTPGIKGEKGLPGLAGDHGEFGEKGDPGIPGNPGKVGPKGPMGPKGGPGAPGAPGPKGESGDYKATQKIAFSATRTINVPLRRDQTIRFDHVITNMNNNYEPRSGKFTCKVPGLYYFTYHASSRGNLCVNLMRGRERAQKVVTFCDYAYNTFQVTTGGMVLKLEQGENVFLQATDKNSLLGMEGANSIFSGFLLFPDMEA
UniProt P02747: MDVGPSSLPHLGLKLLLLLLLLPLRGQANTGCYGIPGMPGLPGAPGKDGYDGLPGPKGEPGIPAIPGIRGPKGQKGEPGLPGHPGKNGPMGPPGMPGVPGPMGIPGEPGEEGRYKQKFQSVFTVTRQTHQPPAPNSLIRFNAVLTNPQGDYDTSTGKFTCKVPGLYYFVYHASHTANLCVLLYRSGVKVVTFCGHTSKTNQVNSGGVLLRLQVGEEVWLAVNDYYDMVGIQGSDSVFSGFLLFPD
UniProt Q13304: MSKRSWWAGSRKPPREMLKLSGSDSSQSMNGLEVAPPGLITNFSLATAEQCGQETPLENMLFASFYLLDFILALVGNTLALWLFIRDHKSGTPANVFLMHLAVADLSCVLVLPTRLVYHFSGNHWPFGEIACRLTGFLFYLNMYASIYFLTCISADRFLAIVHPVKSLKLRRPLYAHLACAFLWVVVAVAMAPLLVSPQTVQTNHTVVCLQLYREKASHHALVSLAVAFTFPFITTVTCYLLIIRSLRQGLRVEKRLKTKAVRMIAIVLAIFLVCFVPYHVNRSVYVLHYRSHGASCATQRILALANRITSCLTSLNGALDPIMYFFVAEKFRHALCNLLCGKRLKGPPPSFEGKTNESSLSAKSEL

Consider one substance from publication PMC12244503.

In the test the target is C1q protein purified from pooled normal human plasma (human) (UniProt P02745+P02746+P02747). Description: co-IP; C666-1 cells treated with 1 ug/mL C1q for 4 h; membrane protein extract incubated with 1 ug antibody at 4 °C overnight, then protein A/G agarose for 2 h at 4 °C; SDS-PAGE and western blot; only the target purified. On the technique in general: Immunoblotting shows a protein as a band on a membrane.

Take “GPR17, a member of the G protein-coupled receptor (GPCR) family (from UniProt Q13304 1-367)”: the binding result was “binds”.
